According to article PMC5341041:
These are yes or no findings as the source states them, for the method shown. In cells and extracts the contact can be indirect. These calls come from enrichment with a bait or labelling near it, and not all partners need be listed.

Chains of the proteins cited; added tags and fusions are not shown.
UniProt P53115: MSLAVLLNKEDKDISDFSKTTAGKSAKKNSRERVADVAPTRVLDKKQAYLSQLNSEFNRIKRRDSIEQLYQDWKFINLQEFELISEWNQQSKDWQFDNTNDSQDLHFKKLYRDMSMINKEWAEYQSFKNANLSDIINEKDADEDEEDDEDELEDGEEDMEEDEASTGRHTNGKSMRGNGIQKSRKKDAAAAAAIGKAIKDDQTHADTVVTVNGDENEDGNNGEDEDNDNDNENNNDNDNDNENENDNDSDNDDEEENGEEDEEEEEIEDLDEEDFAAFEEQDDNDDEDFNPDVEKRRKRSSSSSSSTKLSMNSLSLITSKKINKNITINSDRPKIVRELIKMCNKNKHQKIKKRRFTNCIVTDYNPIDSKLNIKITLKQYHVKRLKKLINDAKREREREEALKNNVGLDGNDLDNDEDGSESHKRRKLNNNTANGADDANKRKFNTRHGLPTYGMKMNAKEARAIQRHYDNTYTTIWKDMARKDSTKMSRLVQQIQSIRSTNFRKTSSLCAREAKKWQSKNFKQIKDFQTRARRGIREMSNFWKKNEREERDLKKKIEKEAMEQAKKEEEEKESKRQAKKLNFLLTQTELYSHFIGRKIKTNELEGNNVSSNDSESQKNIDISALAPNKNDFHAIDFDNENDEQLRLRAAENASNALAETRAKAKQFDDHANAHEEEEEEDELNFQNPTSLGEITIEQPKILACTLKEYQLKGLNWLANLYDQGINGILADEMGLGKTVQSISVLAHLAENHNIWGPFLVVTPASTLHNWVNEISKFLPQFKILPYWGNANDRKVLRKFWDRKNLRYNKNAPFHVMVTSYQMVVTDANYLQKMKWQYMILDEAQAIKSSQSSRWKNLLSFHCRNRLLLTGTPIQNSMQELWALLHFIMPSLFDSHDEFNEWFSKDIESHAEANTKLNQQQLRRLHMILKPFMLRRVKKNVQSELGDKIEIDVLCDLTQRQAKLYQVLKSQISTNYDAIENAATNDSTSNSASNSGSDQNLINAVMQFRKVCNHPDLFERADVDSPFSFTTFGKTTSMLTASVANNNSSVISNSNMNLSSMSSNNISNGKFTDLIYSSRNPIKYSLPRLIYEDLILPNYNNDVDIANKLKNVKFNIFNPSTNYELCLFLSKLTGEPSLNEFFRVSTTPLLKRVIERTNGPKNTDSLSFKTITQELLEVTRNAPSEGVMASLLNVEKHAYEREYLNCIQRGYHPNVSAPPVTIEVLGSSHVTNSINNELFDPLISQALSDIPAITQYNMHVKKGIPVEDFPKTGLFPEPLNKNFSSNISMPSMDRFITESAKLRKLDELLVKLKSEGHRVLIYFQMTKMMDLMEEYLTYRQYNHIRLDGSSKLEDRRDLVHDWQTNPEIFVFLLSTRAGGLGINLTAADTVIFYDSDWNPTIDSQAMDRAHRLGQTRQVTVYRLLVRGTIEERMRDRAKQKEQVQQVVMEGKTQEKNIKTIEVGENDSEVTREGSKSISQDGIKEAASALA
UniProt P35189: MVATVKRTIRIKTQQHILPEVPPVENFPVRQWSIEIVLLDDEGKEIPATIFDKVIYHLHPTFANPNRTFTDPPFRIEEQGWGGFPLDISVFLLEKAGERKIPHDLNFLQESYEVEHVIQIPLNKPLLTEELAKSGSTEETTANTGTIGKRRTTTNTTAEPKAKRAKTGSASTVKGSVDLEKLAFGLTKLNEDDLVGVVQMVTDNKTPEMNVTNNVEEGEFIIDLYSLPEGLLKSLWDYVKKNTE

What was measured:
Assay in all cases: affinity purification with mass spectrometry; TAP purification of TAP-tagged INO80 subunits from wild-type S. cerevisiae grown in YPD; MudPIT, spectral counts, dNSAF
Arp8 (S. cerevisiae) = target: T1, Arp8 (S. cerevisiae) (UniProt Q12386)
T1 sequence: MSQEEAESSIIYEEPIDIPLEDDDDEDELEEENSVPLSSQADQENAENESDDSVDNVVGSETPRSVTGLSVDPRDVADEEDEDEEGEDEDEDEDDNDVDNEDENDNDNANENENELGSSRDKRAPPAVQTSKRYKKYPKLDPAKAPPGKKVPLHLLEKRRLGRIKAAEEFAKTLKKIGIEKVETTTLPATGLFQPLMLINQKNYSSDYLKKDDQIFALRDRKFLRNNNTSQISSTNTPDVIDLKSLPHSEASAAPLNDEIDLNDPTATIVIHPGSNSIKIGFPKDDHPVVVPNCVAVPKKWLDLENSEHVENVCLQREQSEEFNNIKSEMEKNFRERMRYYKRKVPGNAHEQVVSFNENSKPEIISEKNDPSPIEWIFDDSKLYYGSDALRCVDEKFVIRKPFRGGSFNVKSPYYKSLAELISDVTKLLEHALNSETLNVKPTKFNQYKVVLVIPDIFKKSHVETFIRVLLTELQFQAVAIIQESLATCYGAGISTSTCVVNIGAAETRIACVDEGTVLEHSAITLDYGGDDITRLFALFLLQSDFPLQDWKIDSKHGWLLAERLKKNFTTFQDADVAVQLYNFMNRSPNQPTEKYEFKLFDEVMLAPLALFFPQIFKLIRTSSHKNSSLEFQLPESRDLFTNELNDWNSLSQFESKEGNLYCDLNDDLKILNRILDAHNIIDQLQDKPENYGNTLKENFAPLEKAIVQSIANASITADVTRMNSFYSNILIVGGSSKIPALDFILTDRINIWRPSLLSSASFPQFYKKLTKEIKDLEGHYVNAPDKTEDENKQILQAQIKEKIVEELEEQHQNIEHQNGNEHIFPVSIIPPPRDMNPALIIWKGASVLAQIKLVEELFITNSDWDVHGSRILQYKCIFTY

Ies1 (S. cerevisiae) = target: T2, Ies1 (S. cerevisiae) (UniProt P43579)
T2 sequence: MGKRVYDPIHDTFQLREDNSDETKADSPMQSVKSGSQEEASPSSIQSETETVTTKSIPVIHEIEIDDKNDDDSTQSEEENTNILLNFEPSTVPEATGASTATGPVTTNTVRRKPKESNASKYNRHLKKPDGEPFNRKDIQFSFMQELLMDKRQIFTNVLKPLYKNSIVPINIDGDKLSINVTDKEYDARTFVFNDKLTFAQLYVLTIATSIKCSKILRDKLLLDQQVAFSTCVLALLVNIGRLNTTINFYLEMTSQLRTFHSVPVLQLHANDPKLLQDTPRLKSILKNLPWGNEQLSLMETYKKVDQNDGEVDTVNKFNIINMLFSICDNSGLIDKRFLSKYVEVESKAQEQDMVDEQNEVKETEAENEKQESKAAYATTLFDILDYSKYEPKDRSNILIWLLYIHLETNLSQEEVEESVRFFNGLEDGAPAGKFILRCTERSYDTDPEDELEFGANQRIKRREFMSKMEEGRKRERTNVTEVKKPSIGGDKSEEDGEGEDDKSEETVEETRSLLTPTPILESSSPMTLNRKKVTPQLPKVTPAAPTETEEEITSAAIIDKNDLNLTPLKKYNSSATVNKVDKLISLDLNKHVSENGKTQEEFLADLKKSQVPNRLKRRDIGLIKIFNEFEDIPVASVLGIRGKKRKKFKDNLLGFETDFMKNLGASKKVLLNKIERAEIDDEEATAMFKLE

Ies2 (S. cerevisiae) = target: T3, Ies2 (S. cerevisiae) (UniProt P40154)
T3 sequence: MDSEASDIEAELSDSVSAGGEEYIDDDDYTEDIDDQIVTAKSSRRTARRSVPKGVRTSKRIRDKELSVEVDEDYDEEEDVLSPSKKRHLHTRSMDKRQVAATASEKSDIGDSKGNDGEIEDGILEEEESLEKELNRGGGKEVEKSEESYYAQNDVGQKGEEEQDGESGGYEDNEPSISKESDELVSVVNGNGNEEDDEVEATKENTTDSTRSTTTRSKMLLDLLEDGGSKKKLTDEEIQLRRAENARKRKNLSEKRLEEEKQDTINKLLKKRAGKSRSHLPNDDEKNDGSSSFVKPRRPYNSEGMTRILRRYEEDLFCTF

Ies3 (S. cerevisiae) = target: T4, Ies3 (S. cerevisiae) (UniProt Q12345)
T4 sequence: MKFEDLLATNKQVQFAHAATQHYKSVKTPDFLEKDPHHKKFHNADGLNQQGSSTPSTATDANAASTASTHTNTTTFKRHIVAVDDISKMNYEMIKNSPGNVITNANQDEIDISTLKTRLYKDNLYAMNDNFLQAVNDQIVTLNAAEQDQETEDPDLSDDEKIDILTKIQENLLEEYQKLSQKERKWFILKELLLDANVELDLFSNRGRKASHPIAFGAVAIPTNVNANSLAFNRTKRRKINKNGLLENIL

Ies5 (S. cerevisiae) = target: T5, Ies5 (S. cerevisiae) (UniProt P40060)
T5 sequence: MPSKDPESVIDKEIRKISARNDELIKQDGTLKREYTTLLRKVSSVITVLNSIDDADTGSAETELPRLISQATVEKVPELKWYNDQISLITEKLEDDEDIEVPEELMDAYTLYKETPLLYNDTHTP

Ies6 (S. cerevisiae) = target: T6, Ies6 (S. cerevisiae) (UniProt P32617)
T6 sequence: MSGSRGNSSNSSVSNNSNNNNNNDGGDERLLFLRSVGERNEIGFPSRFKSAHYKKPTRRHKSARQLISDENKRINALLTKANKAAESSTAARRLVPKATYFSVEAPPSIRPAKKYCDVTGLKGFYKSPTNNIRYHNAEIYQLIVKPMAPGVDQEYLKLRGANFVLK

Ino80 (S. cerevisiae) = Ino80 (S. cerevisiae) (UniProt P53115)
Nhp10 (S. cerevisiae) = target: T7, Nhp10 (S. cerevisiae) (UniProt Q03435)
T7 sequence: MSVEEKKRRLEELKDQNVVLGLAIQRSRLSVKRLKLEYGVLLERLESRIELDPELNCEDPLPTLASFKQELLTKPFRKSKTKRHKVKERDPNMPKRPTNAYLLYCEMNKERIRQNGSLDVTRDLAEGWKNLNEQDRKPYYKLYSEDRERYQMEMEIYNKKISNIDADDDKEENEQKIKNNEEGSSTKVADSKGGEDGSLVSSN

Measured: binding

Taf14 (from UniProt P35189 1-244)
binds: Arp8 (S. cerevisiae) | Ies1 (S. cerevisiae) | Ies2 (S. cerevisiae) | Ies3 (S. cerevisiae) | Ies5 (S. cerevisiae) | Ies6 (S. cerevisiae) | Ino80 (S. cerevisiae) | Nhp10 (S. cerevisiae)

B1: Ies3 (protein, UniProt Q12345 1-250)
chain: MKFEDLLATNKQVQFAHAATQHYKSVKTPDFLEKDPHHKKFHNADGLNQQGSSTPSTATDANAASTASTHTNTTTFKRHIVAVDDISKMNYEMIKNSPGNVITNANQDEIDISTLKTRLYKDNLYAMNDNFLQAVNDQIVTLNAAEQDQETEDPDLSDDEKIDILTKIQENLLEEYQKLSQKERKWFILKELLLDANVELDLFSNRGRKASHPIAFGAVAIPTNVNANSLAFNRTKRRKINKNGLLENIL
binds: Arp8 (S. cerevisiae) | Ies2 (S. cerevisiae) | Ies5 (S. cerevisiae) | Ies6 (S. cerevisiae) | Ino80 (S. cerevisiae) | Nhp10 (S. cerevisiae)

B2: Nhp10 (protein, UniProt Q03435 1-203)
chain: MSVEEKKRRLEELKDQNVVLGLAIQRSRLSVKRLKLEYGVLLERLESRIELDPELNCEDPLPTLASFKQELLTKPFRKSKTKRHKVKERDPNMPKRPTNAYLLYCEMNKERIRQNGSLDVTRDLAEGWKNLNEQDRKPYYKLYSEDRERYQMEMEIYNKKISNIDADDDKEENEQKIKNNEEGSSTKVADSKGGEDGSLVSSN
binds: Arp8 (S. cerevisiae) | Ies2 (S. cerevisiae) | Ies3 (S. cerevisiae) | Ies5 (S. cerevisiae) | Ies6 (S. cerevisiae) | Ino80 (S. cerevisiae)
